LD50 data for one compound are collected here from US10369166B2 (priority 2014, dated 2019).

Where two headings read alike, the source gives them in different places.

For data set [1] the following is noted: in vivo.
The conditions of data set [2]: in vivo; cited from earlier work.

Turning to `NCCC[C@H](N)C(=O)O` [Ornithine], the values for the LD50 in data set [1] and in data set [2] were 350 g and 5000 mg/kg, respectively.
